Like-named read-outs stand apart in the source and are kept apart here. These are yes or no findings as the source states them, for the method shown. Binding seen in cells or lysates may run through a third protein. A yes stands for co-enrichment or nearness to the bait. Other partners may have been found. Tags and fused reporters may be left off the sequences shown.
T1: FLAG-RNF8 (rat) (UniProt Q4KLN8)
T1 sequence: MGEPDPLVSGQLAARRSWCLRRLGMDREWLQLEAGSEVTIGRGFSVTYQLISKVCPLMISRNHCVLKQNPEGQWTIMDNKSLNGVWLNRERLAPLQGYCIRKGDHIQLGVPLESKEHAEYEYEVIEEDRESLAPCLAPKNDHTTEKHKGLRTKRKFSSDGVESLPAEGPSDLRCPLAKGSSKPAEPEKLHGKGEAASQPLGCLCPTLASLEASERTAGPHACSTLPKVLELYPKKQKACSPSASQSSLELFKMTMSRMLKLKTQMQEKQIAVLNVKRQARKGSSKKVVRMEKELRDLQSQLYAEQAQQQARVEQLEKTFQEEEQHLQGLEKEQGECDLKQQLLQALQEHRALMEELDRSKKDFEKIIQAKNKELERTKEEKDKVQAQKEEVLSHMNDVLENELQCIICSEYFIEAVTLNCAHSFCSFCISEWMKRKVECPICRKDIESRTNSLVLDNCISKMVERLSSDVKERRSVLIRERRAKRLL

By UniProt entry, the sequences of proteins in these tests, tags left out.
UniProt Q5NCX5: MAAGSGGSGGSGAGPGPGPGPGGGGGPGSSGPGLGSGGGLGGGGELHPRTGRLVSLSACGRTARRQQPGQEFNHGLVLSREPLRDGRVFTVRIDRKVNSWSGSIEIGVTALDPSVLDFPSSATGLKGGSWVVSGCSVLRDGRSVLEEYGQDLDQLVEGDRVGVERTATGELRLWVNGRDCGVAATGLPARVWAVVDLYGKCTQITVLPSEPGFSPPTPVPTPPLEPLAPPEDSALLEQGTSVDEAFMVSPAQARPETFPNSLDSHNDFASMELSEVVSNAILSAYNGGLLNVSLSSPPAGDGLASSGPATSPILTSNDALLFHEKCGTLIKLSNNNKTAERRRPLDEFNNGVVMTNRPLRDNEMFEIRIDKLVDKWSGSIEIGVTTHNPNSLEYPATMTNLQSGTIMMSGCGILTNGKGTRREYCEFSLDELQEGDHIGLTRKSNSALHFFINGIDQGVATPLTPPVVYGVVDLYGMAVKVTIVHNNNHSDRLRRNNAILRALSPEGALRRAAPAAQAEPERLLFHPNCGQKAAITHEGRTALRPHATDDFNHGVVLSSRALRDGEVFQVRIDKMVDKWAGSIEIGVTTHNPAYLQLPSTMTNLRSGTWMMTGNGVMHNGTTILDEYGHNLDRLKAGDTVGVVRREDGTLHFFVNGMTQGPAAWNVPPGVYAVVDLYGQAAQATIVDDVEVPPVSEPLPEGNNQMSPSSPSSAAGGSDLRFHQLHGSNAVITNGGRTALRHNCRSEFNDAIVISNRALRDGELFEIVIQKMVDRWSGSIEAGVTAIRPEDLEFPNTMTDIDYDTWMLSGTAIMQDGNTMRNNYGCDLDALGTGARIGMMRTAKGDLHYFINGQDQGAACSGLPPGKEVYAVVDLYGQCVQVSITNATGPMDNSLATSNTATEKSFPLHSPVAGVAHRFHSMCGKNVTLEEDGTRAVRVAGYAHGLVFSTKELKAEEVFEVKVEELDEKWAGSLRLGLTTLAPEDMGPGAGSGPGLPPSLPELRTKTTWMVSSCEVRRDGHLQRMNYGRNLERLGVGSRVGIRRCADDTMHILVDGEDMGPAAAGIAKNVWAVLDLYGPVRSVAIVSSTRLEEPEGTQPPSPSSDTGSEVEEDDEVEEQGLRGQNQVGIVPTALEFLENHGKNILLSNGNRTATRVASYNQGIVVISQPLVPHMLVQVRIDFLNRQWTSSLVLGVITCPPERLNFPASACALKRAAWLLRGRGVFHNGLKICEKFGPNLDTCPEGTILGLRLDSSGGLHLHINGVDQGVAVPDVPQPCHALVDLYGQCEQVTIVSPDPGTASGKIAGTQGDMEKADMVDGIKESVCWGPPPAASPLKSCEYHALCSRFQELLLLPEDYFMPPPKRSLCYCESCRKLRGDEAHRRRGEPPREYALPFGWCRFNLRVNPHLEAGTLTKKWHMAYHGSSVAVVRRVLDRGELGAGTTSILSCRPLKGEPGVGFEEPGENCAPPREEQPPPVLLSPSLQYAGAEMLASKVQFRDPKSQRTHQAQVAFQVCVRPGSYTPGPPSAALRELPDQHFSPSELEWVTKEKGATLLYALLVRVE
UniProt Q4U2R1: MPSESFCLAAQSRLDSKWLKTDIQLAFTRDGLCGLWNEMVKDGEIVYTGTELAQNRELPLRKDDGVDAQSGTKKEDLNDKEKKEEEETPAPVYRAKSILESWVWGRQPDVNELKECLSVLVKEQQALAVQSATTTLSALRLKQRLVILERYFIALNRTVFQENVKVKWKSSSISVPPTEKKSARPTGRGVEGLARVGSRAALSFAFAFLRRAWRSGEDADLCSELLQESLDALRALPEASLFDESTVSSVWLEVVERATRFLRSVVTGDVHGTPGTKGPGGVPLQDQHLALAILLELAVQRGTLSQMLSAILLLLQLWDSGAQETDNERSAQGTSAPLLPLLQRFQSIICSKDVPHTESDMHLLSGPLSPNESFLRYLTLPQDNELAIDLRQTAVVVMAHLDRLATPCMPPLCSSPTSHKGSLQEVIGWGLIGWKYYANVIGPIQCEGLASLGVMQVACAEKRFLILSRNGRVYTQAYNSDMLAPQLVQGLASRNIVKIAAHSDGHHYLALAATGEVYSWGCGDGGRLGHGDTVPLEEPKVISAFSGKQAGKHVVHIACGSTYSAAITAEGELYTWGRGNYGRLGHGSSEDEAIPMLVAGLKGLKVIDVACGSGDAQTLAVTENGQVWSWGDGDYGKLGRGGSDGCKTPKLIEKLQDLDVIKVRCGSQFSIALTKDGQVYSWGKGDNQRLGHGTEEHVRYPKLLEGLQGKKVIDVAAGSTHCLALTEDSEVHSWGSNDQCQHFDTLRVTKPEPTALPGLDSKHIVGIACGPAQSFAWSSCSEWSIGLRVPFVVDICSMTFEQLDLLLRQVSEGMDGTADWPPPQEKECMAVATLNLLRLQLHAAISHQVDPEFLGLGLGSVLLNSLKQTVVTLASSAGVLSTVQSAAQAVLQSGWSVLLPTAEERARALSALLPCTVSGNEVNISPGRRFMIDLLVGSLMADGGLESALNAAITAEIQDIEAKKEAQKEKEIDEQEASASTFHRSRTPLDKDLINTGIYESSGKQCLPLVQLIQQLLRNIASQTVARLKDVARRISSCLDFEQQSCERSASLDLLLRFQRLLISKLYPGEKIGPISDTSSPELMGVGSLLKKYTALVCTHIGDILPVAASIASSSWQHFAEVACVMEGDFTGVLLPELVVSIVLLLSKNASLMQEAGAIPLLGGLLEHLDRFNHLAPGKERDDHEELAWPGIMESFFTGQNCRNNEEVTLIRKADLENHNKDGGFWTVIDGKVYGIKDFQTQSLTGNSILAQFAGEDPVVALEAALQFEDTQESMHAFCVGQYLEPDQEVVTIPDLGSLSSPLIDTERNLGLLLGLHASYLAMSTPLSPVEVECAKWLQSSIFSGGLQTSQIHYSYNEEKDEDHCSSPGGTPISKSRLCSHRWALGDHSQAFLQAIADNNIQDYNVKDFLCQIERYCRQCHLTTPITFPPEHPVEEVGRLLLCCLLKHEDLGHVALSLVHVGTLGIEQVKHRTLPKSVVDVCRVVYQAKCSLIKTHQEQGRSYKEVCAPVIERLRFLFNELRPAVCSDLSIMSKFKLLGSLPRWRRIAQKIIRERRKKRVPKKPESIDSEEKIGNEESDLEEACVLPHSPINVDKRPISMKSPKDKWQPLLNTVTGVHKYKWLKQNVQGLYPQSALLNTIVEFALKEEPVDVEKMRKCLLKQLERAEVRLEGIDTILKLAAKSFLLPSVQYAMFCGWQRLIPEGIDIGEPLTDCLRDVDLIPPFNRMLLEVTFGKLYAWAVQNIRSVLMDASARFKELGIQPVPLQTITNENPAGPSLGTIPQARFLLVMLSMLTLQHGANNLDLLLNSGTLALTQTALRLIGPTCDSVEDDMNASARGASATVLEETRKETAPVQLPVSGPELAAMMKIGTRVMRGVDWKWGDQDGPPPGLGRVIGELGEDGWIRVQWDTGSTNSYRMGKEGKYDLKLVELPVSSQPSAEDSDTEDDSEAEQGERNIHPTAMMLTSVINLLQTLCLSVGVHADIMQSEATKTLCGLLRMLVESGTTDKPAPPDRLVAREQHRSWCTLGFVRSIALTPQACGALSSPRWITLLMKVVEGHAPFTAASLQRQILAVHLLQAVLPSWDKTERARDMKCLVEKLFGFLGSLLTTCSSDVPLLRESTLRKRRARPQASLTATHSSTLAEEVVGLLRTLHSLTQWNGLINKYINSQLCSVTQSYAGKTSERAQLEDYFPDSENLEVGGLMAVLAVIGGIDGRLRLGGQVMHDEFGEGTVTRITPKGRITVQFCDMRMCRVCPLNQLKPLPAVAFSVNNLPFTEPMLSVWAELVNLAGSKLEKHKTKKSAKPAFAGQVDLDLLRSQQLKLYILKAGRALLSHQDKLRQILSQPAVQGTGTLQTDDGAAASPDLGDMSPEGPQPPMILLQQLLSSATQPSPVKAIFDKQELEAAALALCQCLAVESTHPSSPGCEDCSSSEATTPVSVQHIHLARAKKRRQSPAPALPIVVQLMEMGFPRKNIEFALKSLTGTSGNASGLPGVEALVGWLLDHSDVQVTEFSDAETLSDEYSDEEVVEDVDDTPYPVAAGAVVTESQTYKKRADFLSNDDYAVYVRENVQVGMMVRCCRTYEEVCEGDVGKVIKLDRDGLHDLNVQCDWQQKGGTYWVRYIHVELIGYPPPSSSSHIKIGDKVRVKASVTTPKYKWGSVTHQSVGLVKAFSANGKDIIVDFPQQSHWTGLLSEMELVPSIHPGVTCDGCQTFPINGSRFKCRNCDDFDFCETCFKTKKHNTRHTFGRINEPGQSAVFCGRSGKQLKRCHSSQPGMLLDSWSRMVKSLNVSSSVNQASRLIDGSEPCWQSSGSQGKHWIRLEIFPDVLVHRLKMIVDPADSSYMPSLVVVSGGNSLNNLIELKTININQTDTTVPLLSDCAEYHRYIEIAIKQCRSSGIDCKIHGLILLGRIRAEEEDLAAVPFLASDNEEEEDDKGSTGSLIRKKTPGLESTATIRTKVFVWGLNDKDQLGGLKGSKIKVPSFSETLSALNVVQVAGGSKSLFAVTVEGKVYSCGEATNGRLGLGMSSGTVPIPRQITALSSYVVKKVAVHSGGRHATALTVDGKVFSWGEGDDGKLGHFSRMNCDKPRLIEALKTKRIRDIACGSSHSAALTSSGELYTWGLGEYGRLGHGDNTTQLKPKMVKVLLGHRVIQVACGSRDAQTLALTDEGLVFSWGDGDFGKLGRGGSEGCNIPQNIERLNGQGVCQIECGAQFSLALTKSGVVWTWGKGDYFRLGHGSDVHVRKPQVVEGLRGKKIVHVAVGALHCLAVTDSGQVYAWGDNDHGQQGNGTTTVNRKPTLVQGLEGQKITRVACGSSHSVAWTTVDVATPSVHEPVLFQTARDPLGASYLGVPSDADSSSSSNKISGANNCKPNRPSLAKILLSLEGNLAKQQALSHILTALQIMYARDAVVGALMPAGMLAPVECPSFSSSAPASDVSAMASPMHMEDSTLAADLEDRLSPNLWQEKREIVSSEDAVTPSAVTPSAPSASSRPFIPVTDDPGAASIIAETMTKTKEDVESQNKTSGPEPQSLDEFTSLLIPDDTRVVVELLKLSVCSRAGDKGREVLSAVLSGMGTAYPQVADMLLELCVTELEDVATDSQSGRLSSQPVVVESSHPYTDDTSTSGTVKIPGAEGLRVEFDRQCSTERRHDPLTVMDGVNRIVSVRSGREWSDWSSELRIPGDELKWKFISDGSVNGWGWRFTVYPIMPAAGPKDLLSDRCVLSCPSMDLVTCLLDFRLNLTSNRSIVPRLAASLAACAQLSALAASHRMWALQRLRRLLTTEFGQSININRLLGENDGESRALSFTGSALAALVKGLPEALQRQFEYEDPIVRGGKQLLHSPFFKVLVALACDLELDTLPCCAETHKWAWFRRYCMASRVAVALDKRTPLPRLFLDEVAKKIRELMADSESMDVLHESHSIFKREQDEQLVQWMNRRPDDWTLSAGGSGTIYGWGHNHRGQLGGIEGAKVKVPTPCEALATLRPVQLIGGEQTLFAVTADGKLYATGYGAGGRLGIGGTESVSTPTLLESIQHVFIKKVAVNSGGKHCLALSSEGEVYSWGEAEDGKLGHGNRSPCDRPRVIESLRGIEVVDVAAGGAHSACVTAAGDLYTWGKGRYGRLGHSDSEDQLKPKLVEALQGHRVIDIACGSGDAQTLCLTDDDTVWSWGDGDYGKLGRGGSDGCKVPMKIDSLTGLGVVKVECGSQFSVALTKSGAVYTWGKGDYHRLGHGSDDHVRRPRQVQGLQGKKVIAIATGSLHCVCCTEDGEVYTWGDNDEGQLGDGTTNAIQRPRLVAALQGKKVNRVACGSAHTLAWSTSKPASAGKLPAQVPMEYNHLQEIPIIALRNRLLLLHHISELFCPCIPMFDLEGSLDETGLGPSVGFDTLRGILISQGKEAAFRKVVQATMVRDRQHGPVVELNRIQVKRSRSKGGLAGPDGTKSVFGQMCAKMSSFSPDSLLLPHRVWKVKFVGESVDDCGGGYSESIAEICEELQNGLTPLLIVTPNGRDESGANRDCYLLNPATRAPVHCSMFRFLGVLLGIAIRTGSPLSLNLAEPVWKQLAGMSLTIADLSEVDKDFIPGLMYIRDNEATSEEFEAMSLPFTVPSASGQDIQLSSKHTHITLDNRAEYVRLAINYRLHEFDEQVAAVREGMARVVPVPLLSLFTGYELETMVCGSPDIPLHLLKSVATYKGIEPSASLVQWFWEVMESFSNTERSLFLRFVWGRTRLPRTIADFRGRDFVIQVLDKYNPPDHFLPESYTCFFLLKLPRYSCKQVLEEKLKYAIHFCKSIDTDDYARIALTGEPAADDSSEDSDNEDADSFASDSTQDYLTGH

B1: Anks1 (protein, UniProt P59672 1-1150)
chain: MGKEQELLEAARTGHLPAVEKLLSGKRLSSGFGGGGGGSGSGGGSGGGGLGSSSHPLSSLLSMWRGPNVNCVDSTGYTPLHHAALNGHRDVVEVLLRNDALTNVADSKGCYPLHLAAWKGDAQIVRLLIQQGPSHTRVNEQNALEIRELKKYGPFDPYINAKNNDNETALHCAAQYGHTEVVKALLEELTDPTMRNNKFETPLDLAALYGRLEVVKLLLGAHPNLLSCSTRKHTPLHLAARNGHKAVVQVLLDAGMDSNYQTEMGSALHEAALFGKTDVVQILLAAGIDVNIKDNRGLTALDTVRDLPSQKSQQIAALIEDHMTGKRSVKEVDRTSTAQLPLLSNTDAIAPMSQGSMEKTVTELILHFDTHADEEGPYEALYNAVSCHSLDSTASGRSSDRDSMNKEAEATGTRAAGVRPRERPPPPAKPPPDEEEEERVDKKYFPLAASEGLAVRPRIQSSAPQEEEEHPYELLLTAETKKLGTTDGRTEDHRQSGSGRSQDSVEGQDGQVPEQFSGLLHGSSPVCEVGQDPFQLLTAPSQSHPESSQQDACHEASMQLEEPGVQGTEPPQPGVPDQSKRVGLPAGLTALASRTYLDALTHTVPLRPAGAEEEDQSGPRSRAPPTSKPKAELKLSRSLSKSDSDLLTCSPTEDATMGSRSESLSNCSIGKKRLEKSPSFASEWDEIEKIMSSIGEGIDFSQEQQKISGSRTLEQSVGEWLESIGLQQYESKLLLNGFDDVRFLGSNVMEEQDLREIGISDPQHRRKLLQAARSLPKVKALGYDGVSPTSVPSWLDSLGLQDYVHSFLSSGYSSIDTVKNLWELELVNVLKVHLLGHRKRIIASLADRPYEEPPQKPPRFSQLRCQDLISQTSSPLSQNDSCTGRSADLLLPSADTSRRRHDSLPDPGTASRADRFRVQEEPSETKLTLRPPSLAAPYAPVQSWQHQPEKLIFESCGYEANYLGSMLIKDLRGTESTQDACAKMRKSTEHMKKIPTIILSITYKGVKFIDASNKNVIAEHEIRNISCAAQDPEDLCTFAYITKDLQTSHHYCHVFSTVDVNLTYEIILTLGQAFEVAYQLALQAQKSRTMAASAASMIETKSSKPVPKPRVGMRKSALEPPDSDQEAPSHASVSWIVDPKPDSKRSLSTN
B2: Gle1 (protein, UniProt Q8R322 1-699)
chain: MPSDGRCWETLRALRNTSKGRLRYDREWLLRYEDVLEECMSLPKLSSYSGWVVDHILPNTSGHTQESAPSSDNSPSSGSASGLYQSSLLKSPVRSSPQSPSPSSPNGTQSTHESPFTEPIAPQSSRAIKVEGCIRMYELAHRMRGTEGLRQWQEEQERKVRALSEMASEQLKRFDELKELKLHKEFQDLQEVMEKSTREALGHQEKLKEEHRHRAKILNLKLREAEQQRVKQAEQEQLRKEEGQVRLRSLYSLQEEVLQLNQQLDASSQHKELLSVDLAAFQTRGNQLCGLISSIIRTTLESGYPTAENQAEAERALQEMRDLLSDLEQEITRASQVKKKHEEEAKVKRQESQVQQGPAPPTQTSAPSPSPVGAQNEDLQVKVQDSTMQWYQQLQDASAKCVLAFEDLTSSKDSQTKKIKMDLQKAATIPVSQISTIAGSKLKEIFDKIHSLLSGKPVQSGGRSVSVTLNPQGLDFVQYKLAEKFVKQGEEEVASHHEAAFPIAVVASGIWMLHPKVGDLILAHLHKKCPYSVPFYPAFKEGMALEDYQRMLGYQVTDSKVEQQDNFLKRMSGMIRLYAAIIQLQWPYGNRQEAHPHGLNHGWRWLAQVLNMEPLSDVTATLLFDFLEVCGNALMKQYQVQFWKMILLIKEDYFPRIEAITSSGQMGSFIRLKQFLEKCLQRREIPVPRGFLTTSFWRS

How the values were obtained:
FLAG-RNF8 (rat) [1] = biological target: T1, FLAG-RNF8 (rat); experiment: affinity purification with mass spectrometry; FLAG-RNF8 precipitated from Neuro2A lysate on FLAG M2 agarose, 4 h; wash 50 mM Tris-HCl pH8.0, 150 mM NaCl, 0.1% Triton X-100; eluted with 3xFLAG peptide; LC-MS/MS; ComPASS analysis
FLAG-RNF8 (rat) [2] = biological target: T1, FLAG-RNF8 (rat); experiment: as above; remark: listed apart in the source

Molecule | binding (FLAG-RNF8 (rat) [1]) | binding (FLAG-RNF8 (rat) [2])
NEURL4 (endogenous, Neuro2A) (from UniProt Q5NCX5 1-1563) | binds | –
HERC2 (endogenous, Neuro2A) (from UniProt Q4U2R1 1-4836) | binds | –
B1 | – | binds
B2 | – | binds
